Data on two molecules can be found in PMC10985093.

No constants are given. Whether binding was seen depends on the method and setting. In cells and extracts the contact can be indirect. Some binding calls cover weakened binding; strength is not graded here.

In assay [1] the target is T1, O-GlcNAc transferase (OGT), endogenous (mouse (endogenous in mESCs)) (UniProt Q8CGY8).
T1 sequence: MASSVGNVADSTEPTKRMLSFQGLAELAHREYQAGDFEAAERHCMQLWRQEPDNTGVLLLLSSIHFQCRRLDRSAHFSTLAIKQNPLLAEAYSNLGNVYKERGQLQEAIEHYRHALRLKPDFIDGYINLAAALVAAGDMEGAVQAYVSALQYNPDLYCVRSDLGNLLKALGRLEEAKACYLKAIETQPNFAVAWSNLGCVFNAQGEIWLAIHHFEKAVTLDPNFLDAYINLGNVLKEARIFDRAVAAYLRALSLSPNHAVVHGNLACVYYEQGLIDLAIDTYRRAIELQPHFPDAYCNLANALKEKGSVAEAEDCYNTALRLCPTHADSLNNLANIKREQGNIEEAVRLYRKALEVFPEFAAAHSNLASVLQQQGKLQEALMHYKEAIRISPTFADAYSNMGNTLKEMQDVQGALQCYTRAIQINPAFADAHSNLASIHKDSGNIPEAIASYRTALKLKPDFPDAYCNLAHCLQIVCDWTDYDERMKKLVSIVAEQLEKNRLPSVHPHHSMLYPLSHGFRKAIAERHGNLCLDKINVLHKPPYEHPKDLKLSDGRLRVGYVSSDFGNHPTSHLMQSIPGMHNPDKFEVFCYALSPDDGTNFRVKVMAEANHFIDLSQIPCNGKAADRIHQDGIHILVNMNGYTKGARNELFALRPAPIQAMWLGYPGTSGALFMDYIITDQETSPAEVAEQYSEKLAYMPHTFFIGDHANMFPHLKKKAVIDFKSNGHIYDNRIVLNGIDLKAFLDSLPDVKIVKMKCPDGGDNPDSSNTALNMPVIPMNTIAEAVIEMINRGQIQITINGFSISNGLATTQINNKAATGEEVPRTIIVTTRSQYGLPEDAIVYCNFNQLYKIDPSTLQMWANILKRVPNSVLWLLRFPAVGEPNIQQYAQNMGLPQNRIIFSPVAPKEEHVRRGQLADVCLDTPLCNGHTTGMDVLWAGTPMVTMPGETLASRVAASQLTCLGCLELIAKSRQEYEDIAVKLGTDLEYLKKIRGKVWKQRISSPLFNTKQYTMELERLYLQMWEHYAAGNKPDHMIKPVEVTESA
Briefly: co-IP; nuclear extracts of mESCs (10 million cells); endogenous CTCF immunoprecipitated with 5 µg CTCF antibody pre-bound to Protein G agarose, OGT detected by western blot; the OGT immunoprecipitation done in the same way. (In general: In western blotting, separated proteins are transferred to a membrane and probed.)

Assay [2] concerns the target T2, CCCTC-binding factor (CTCF), endogenous (mouse (endogenous in mESCs)) (UniProt Q61164).
T2 sequence (chain, O-GlcNAc at T668 (in 60.09% of CTCF)): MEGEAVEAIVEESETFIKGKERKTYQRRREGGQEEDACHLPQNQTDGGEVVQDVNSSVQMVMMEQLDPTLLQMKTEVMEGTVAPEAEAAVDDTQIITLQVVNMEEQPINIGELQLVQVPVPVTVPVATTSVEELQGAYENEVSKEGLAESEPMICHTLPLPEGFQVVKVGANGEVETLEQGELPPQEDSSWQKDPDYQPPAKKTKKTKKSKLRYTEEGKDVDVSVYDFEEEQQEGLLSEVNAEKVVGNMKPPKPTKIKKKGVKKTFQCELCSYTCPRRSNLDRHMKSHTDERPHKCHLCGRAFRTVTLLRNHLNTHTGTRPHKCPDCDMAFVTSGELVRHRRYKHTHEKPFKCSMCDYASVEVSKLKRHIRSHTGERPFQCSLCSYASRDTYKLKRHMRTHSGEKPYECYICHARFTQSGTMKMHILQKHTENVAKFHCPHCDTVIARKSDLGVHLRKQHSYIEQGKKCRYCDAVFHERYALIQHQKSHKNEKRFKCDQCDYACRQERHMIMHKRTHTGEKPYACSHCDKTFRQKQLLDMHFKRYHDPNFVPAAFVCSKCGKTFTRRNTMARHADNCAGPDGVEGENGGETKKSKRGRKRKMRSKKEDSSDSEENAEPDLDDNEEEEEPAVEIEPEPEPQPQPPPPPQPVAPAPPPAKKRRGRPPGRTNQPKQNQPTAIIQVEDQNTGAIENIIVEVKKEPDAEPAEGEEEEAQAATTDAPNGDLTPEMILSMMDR
The assay is described as above.

As to “CCCTC-binding factor (CTCF), endogenous (from UniProt Q61164 1-736)”, in assay [1], the binding result is recorded as “binds”.

B1: O-GlcNAc transferase (OGT), endogenous (enzyme, UniProt Q8CGY8 1-1046)
chain: MASSVGNVADSTEPTKRMLSFQGLAELAHREYQAGDFEAAERHCMQLWRQEPDNTGVLLLLSSIHFQCRRLDRSAHFSTLAIKQNPLLAEAYSNLGNVYKERGQLQEAIEHYRHALRLKPDFIDGYINLAAALVAAGDMEGAVQAYVSALQYNPDLYCVRSDLGNLLKALGRLEEAKACYLKAIETQPNFAVAWSNLGCVFNAQGEIWLAIHHFEKAVTLDPNFLDAYINLGNVLKEARIFDRAVAAYLRALSLSPNHAVVHGNLACVYYEQGLIDLAIDTYRRAIELQPHFPDAYCNLANALKEKGSVAEAEDCYNTALRLCPTHADSLNNLANIKREQGNIEEAVRLYRKALEVFPEFAAAHSNLASVLQQQGKLQEALMHYKEAIRISPTFADAYSNMGNTLKEMQDVQGALQCYTRAIQINPAFADAHSNLASIHKDSGNIPEAIASYRTALKLKPDFPDAYCNLAHCLQIVCDWTDYDERMKKLVSIVAEQLEKNRLPSVHPHHSMLYPLSHGFRKAIAERHGNLCLDKINVLHKPPYEHPKDLKLSDGRLRVGYVSSDFGNHPTSHLMQSIPGMHNPDKFEVFCYALSPDDGTNFRVKVMAEANHFIDLSQIPCNGKAADRIHQDGIHILVNMNGYTKGARNELFALRPAPIQAMWLGYPGTSGALFMDYIITDQETSPAEVAEQYSEKLAYMPHTFFIGDHANMFPHLKKKAVIDFKSNGHIYDNRIVLNGIDLKAFLDSLPDVKIVKMKCPDGGDNPDSSNTALNMPVIPMNTIAEAVIEMINRGQIQITINGFSISNGLATTQINNKAATGEEVPRTIIVTTRSQYGLPEDAIVYCNFNQLYKIDPSTLQMWANILKRVPNSVLWLLRFPAVGEPNIQQYAQNMGLPQNRIIFSPVAPKEEHVRRGQLADVCLDTPLCNGHTTGMDVLWAGTPMVTMPGETLASRVAASQLTCLGCLELIAKSRQEYEDIAVKLGTDLEYLKKIRGKVWKQRISSPLFNTKQYTMELERLYLQMWEHYAAGNKPDHMIKPVEVTESA
Consider B1, for which the binding result in assay [2] is reported as “binds”.
